Test results taken from PMC9532951, “Identification and characterization of a novel SNAT2 (SLC38A2) inhibitor reveals synergy with glucose transport inhibition in cancer cells” (Frontiers in Pharmacology, 2022).
Several values for one entry are separate records, joined by “and”; a condition that tells them apart may be missing. Equal values may be shown once. The source gives many values for each of these; only a part stands here. Blank lines part the entries; values can stand above or below the compound they belong to.

How the values were obtained:
[1] = target: T1, SNAT2 (Homo sapiens, UniProt Q96QD8); experiment: FMP assay with betaine in amino acid depleted SKOV3 cells; type: cell-based; set-up: SKOV3 cells were pre-incubated in starvation medium for 15 h to induce SNAT2 expression; endogenous in cells; host or cells: SKOV3 ovarian cancer cells, amino acid depleted for 15 h
T1 sequence (Q96QD8 1-506): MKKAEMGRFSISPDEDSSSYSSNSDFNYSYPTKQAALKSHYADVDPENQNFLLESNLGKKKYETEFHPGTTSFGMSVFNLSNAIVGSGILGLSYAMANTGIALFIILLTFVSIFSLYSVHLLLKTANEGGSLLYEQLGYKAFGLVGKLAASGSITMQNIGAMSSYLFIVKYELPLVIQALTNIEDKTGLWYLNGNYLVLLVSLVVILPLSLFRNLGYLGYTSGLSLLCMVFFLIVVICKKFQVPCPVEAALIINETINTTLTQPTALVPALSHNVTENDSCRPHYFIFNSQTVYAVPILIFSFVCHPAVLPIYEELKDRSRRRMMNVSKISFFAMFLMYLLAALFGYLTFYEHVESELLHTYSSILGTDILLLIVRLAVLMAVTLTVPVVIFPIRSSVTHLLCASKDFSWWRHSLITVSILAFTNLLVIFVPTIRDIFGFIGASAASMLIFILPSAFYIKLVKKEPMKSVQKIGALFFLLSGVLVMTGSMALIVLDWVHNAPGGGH
Protocol: The FLIPR Membrane Potential Blue Explorer Kit (Molecular Devices) was used to characterise inhibitors and to optimise a high-throughput compound screen. Cells were seeded at approximately 60,000 cells/well on a 96-well plate and allowed to attach and grow overnight in a cell incubator. The next day, the cells were washed once with mHBSS and incubated in a starvation medium (composed of mHBSS with 1% dialysed heat-inactivated FBS, 23 mM NaHCO3, 10 U/ml penicillin and 10 μg/ml streptomycin) for 24 h. Cells were then washed once with mHBSS and incubated with 50 µl of the mHBSS-resuspended FMP assay dye and 50 µl of mHBSS (with or without inhibitors) and incubated at room temperature for 30 min. The plate was then placed in an EnSpire Multimode plate reader (PerkinElmer) and four sequential measurements of fluorescence were recorded as a baseline reference. […] The excitation wavelength was set to 530 nm and the emission was detected at 565 nm. The Δ fluorescent signal reported in the figures was taken 30 s after substrate addition. After the assay was complete, the liquid content of the plate was carefully removed, and the cell monolayer inspected to ensure it remained intact throughout the course of the assay.

[2] = system: SNAT1 and SNAT2; experiment: FMP assay in HCC1806 clones C10 (ASCT2ko) and D126 (ASCT2ko, SNAT2ko); type: cell-based, human; settings: C10 cells
Protocol: (§1) To delete the SNAT2 (SLC38A2) gene in modified HCC1806 cells (clone C10 nullizygous for ASCT2 ([Broer et al., 2019])), the GeneArt CRISPR Nuclease Vector with OFP Reporter Kit (Invitrogen; A21174) was employed and complementary 19–20 bp long single-stranded oligonucleotides with overhangs were designed to produce a guide RNA (gRNA) for the Cas9 nuclease that would target exon 7 of the SNAT2 gene. Colonies were analysed by sequencing using the U6 primer included in the GeneArt CRISPR Nuclease Vector with OFP Reporter kit. Plasmids that contained the correct CRISPR nuclease construct were then used to transfect HCC1806 cells with Lipofectamine 2000 (Invitrogen). Prior to transfection, medium was replaced with 2 ml of fresh DMEM/F-12 (supplemented with 10% heat-inactivated FBS and 2 mM glutamine). Plasmid DNA (4 µg) and 10 µL of Lipofectamine 2000 were incubated separately for 5 min at room temperature in 500 µl of Opti-MEM (Invitrogen) before being combined and incubated for a further 30 min at room temperature. The DNA-Lipofectamine complex was then added to the cells in a dropwise manner and allowed to be absorbed over 6 h at 37°C, after which the medium was renewed with fresh DMEM/F-12. Cells were checked for red fluorescence using an EVOS FL cell imaging system (Thermo Fisher Scientific) 48–72 h post transfection. Subsequently, cells were detached using 0.25% Trypsin EDTA. After harvesting and washing thrice with PBS (pH 7.4), cells were resuspended in PBS (pH 7.4) supplemented with 5 mM glucose and 1% dialysed and heat inactivated FBS and passed through a 100 μm cell strainer. The cell filtrate was then pelleted once more and resuspended in the same buffer. Cells were sorted using an ARIA II FACS machine and individually dispensed into the wells of a 96-well plate. Nullizygous clones were identified using a series of assays including the FLIPR membrane potential assay, western blotting and sequencing.
(§2) The FLIPR Membrane Potential Blue Explorer Kit (Molecular Devices) was used to characterise inhibitors and to optimise a high-throughput compound screen. Cells were seeded at approximately 60,000 cells/well on a 96-well plate and allowed to attach and grow overnight in a cell incubator. […] The plate was then placed in an EnSpire Multimode plate reader (PerkinElmer) and four sequential measurements of fluorescence were recorded as a baseline reference. Immediately after the baseline measurements were taken, 25 µl of 5 mM glutamine dissolved in mHBSS was injected into each well and the plate was shaken orbitally for 5 s before a series of consecutive fluorescence measurements were taken. The excitation wavelength was set to 530 nm and the emission was detected at 565 nm. […]

[3] = target: T2, SNAT1 and SNAT2 (Homo sapiens, UniProt Q9H2H9); experiment: as above; type: cell-based; settings: D126 cells
T2 construct: endogenous in cells; host or cells: HCC1806 clone C10 (ASCT2ko) and clone D126 (ASCT2ko, SNAT2ko), amino acid depleted for 24 h
T2 sequence (Q9H2H9 1-487): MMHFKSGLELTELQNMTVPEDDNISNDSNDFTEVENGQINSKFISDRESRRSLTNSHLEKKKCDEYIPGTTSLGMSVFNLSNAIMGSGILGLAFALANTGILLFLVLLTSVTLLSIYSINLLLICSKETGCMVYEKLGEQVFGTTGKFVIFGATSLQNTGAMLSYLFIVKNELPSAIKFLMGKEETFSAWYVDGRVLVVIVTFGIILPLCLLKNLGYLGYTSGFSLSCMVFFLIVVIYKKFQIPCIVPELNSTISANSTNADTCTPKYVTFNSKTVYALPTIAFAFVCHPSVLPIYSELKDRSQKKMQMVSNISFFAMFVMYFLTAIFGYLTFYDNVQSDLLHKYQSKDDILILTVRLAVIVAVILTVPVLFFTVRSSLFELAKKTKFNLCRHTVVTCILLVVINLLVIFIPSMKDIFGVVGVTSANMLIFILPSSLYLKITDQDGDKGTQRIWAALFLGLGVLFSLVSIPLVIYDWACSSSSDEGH
Protocol: as §1, §2

FMP fluorescence trace (Figure 4E) ([1]; concentration 0.03, time 0): 36248 and 39601 and 41404
FMP fluorescence trace (Figure 4E) ([1]; concentration 0.03, time 15): 36188 and 39472 and 40740
FMP fluorescence trace (Figure 4E) ([1]; concentration 0.03, time 30): 36456 and 39343 and 40891
FMP fluorescence trace (Figure 4E) ([1]; concentration 0.03, time 105): 39631 and 40948
FMP fluorescence trace (Figure 4E) ([1]; concentration 0.03, time 120): 36395 and 40014 and 40781
FMP fluorescence trace (Figure 4E) ([1]; concentration 0.03, time 135): 36713 and 39699 and 41060
FMP fluorescence trace (Figure 4E) ([1]; concentration 0.03, time -15): 36682 and 39641 and 41234
FMP fluorescence trace (Figure 4E) ([1]; concentration 0.03, time -30): 36591 and 39956 and 41198
FMP fluorescence trace (Figure 4E) ([1]; concentration 0.1, time 0): 39340 and 42821 and 44257
FMP fluorescence trace (Figure 4E) ([1]; concentration 0.1, time 15): 39994 and 43240 and 44695
FMP fluorescence trace (Figure 4E) ([1]; concentration 0.1, time 30): 40300 and 43268 and 44511
FMP fluorescence trace (Figure 4E) ([1]; concentration 0.1, time 105): 40063 and 43790 and 44920
FMP fluorescence trace (Figure 4E) ([1]; concentration 0.1, time 120): 40412 and 43731 and 45066
FMP fluorescence trace (Figure 4E) ([1]; concentration 0.1, time 135): 40214 and 43963 and 45148
FMP fluorescence trace (Figure 4E) ([1]; concentration 0.1, time -15): 39614 and 43044 and 44530
FMP fluorescence trace (Figure 4E) ([1]; concentration 0.1, time -30): 39905 and 43080 and 44482
FMP fluorescence trace (Figure 4E) ([1]; concentration 0.3, time 0): 35236 and 50065 and 44763
FMP fluorescence trace (Figure 4E) ([1]; concentration 0.3, time 15): 38807 and 54462 and 48245
FMP fluorescence trace (Figure 4E) ([1]; concentration 0.3, time 30): 39021 and 54500 and 48475
FMP fluorescence trace (Figure 4E) ([1]; concentration 0.3, time 120): 39771 and 55626 and 49234
FMP fluorescence trace (Figure 4E) ([1]; concentration 0.3, time 135): 39866 and 55559 and 49279
FMP fluorescence trace (Figure 4E) ([1]; concentration 0.3, time -15): 35725 and 50036 and 44815
FMP fluorescence trace (Figure 4E) ([1]; concentration 0.3, time -30): 35663 and 50206 and 44692
FMP fluorescence trace (Figure 4E) ([1]; concentration 1, time 0): 38616 and 51411 and 46418
FMP fluorescence trace (Figure 4E) ([1]; concentration 1, time 15): 51329 and 65920 and 59516
FMP fluorescence trace (Figure 4E) ([1]; concentration 1, time 30): 52319 and 66757 and 60235
FMP fluorescence trace (Figure 4E) ([1]; concentration 1, time 120): 53418 and 69184 and 62213
FMP fluorescence trace (Figure 4E) ([1]; concentration 1, time 135): 53663 and 69622 and 61661
FMP fluorescence trace (Figure 4E) ([1]; concentration 1, time -15): 38966 and 51107 and 46816
FMP fluorescence trace (Figure 4E) ([1]; concentration 1, time -30): 39015 and 51488 and 46730
FMP fluorescence trace (Figure 4E) ([1]; concentration 3, time 0): 39098 and 47301 and 43810
FMP fluorescence trace (Figure 4E) ([1]; concentration 3, time 15): 65447 and 77239 and 72609
FMP fluorescence trace (Figure 4E) ([1]; concentration 3, time 30): 67878 and 79895 and 74460
FMP fluorescence trace (Figure 4E) ([1]; concentration 3, time 120): 71575 and 85498 and 78527
FMP fluorescence trace (Figure 4E) ([1]; concentration 3, time 135): 71691 and 84918 and 79074
FMP fluorescence trace (Figure 4E) ([1]; concentration 3, time -15): 38941 and 47276 and 43868
FMP fluorescence trace (Figure 4E) ([1]; concentration 3, time -30): 38992 and 47580 and 43779
FMP fluorescence trace (Figure 4E) ([1]; concentration 10, time 0): 38026 and 47522 and 43301
FMP fluorescence trace (Figure 4E) ([1]; concentration 10, time 15): 77709 and 92080 and 85399
FMP fluorescence trace (Figure 4E) ([1]; concentration 10, time 30): 81193 and 96439 and 89928
FMP fluorescence trace (Figure 4E) ([1]; concentration 10, time 120): 89522 and 106429 and 98327
FMP fluorescence trace (Figure 4E) ([1]; concentration 10, time 135): 89958 and 106947 and 98853
FMP fluorescence trace (Figure 4E) ([1]; concentration 10, time -15): 38236 and 47973 and 43260
FMP fluorescence trace (Figure 4E) ([1]; concentration 10, time -30): 38420 and 48280 and 43303
FMP fluorescence trace (Figure 4E) ([1]; concentration 30, time 0): 34380 and 43442 and 39339
FMP fluorescence trace (Figure 4E) ([1]; concentration 30, time 15): 78102 and 91417 and 87667
FMP fluorescence trace (Figure 4E) ([1]; concentration 30, time 30): 82488 and 96970 and 91979
FMP fluorescence trace (Figure 4E) ([1]; concentration 30, time 120): 94607 and 112721 and 104458
FMP fluorescence trace (Figure 4E) ([1]; concentration 30, time 135): 94767 and 112903 and 104920
FMP fluorescence trace (Figure 4E) ([1]; concentration 30, time -15): 34399 and 43394 and 39108
FMP fluorescence trace (Figure 4E) ([1]; concentration 30, time -30): 34516 and 43482 and 39169
Structure (SMILES): C[N+](C)(C)CC(=O)O [Betaine, betaine]

Structure (SMILES): N[C@@H](CCC(=O)NO)C(=O)O [GHX, L-glutamic acid γ-monohydroxamate]
FMP fluorescence ([2]; time 12, replicates 1-10): 22680 and 24692 and 23914 and 30455 and 30240 and 24259 and 22517 and 22424 and 30730 and 20724
FMP fluorescence ([2]; time 20, replicates 1-10): 22571 and 24791 and 24317 and 30484 and 30582 and 24624 and 22645 and 23055 and 30684 and 21238
FMP fluorescence ([3]; time 12, replicates 1-10): 15497 and 15187 and 15491 and 15990 and 16201 and 16210 and 15458 and 14591 and 15061
FMP fluorescence ([3]; time 20, replicates 1-10): 20228 and 15609 and 15195 and 15756 and 16281 and 16254 and 16439 and 15610 and 14748 and 15258
